Series [1] can be described thus: Coating ability on TiO2 at pH 3-9, XPS Ti2p signal attenuation. The note with it: for capable of forming coatings between pH 3 and 9: TiO2, XPS, at least 20% signal reduction; for Ti2p Signal Strength (%): 24 h, 600 mM NaCl.
A short description of series [2]: Coating thickness on TiO2 by ellipsometry. The note with it: TiO2, 48 h, pH 8.
The nature of series [3]: Effect of salt on coating formation on SiO2, XPS Si2p signal. The note with it: 48 h.
Series [4] in a line: Effect of salt on coating formation on TiO2, XPS Ti2p signal. The note with it: for able to coat both TiO2 and SiO2 with at least one of the experimental conditions: TiO2 and SiO2, salts of Tables 8-9; for Ti2p Signal Strength (%): 48 h.
The mark [5] stands for this setting: pH 8, Ca2+ = 600 mM CaCl2, 1 mg/mL.
Setting [6] is: pH 8, Cu2+ = 100 μM CuCl2 + 600 mM NaCl, 1 mg/mL.
[7] abbreviates: pH 8, Mg2+ = 600 mM MgCl2, 1 mg/mL.
Where [8] appears, read: pH 8, Na+ = 600 mM NaCl, 1 mg/mL.
Setting [9] is: pH 8, Zn2+ = 100 μM ZnCl2 + 600 mM NaCl, 1 mg/mL.
Where [10] appears, read: pH 9, Ca2+ = 600 mM CaCl2, 1 mg/mL.
The mark [11] stands for this setting: pH 9, Cu2+ = 100 μM CuCl2 + 600 mM NaCl, 1 mg/mL.
The mark [12] stands for this setting: pH 9, Mg2+ = 600 mM MgCl2, 1 mg/mL.
[13] abbreviates: pH 9, Na+ = 600 mM NaCl, 1 mg/mL.
Where [14] appears, read: pH 9, Zn2+ = 100 μM ZnCl2 + 600 mM NaCl, 1 mg/mL.
Where [15] appears, read: pH 7, Ca2+ = 600 mM CaCl2, 1 mg/mL.
The mark [16] stands for this setting: pH 7, Cu2+ = 100 μM CuCl2 + 600 mM NaCl, 1 mg/mL.
[17] abbreviates: pH 7, Mg2+ = 600 mM MgCl2, 1 mg/mL.
Where [18] appears, read: pH 7, Na+ = 600 mM NaCl, 1 mg/mL.
The mark [19] stands for this setting: pH 7, Zn2+ = 100 μM ZnCl2 + 600 mM NaCl, 1 mg/mL.

Some entries repeat one wording, which the source may state once for all of them.

Regarding `C[C@@H]1O[C@@H](O[C@H]2[C@H](Oc3cc(O)c4c(c3)O[C@H](c3ccc(O)cc3)CC4=O)O[C@H](CO)[C@@H](O)[C@@H]2O)[C@H](O)[C@H](O)[C@H]1O` [Naringin, naringin], the “capable of forming coatings between pH 3 and 9” value (shortened to “capable”) in series [1] was “capable of forming coatings”. Besides, the “Ti2p Signal Strength (%)” value in series [1] (pH 7, precursor 1 mg/mL) amounted to 90.9%; in series [1] (pH 8, precursor 1 mg/mL) it was 79.0%; in series [1] (pH 9, precursor 1 mg/mL) it was 80.0%.
Take `O=c1c(O)c(-c2ccc(O)cc2O)oc2cc(O)cc(O)c12` [Morin, morin]: the “capable” value in series [1] is recorded as “capable of forming coatings”. In addition, the “Ti2p Signal Strength (%)” value in series [1] (pH 8, precursor 1 mg/mL) came out at 45.9%; in series [1] (pH 9, precursor 1 mg/mL), 54.7%. In addition, the “Coating Thickness (nm)” value in series [2] came to 1.9 ± 0.2 nm.
Take `O=C1C[C@@H](c2ccc(O)cc2)Oc2cc(O)cc(O)c21` [Naringenin, naringenin]: in series [1], the “capable” value is “capable of forming coatings”. For the same molecule, the “Ti2p Signal Strength (%)” value in series [1] (pH 8, precursor 1 mg/mL) worked out at 80.2%; in series [1] (pH 9, precursor 1 mg/mL), 90.1%.
As for `Oc1cc(O)cc(O)c1` [Phloroglucinol, phloroglucinol], the “capable” value in series [1] is recorded as “capable of forming coatings”. In addition, the “Ti2p Signal Strength (%)” value in series [1] (pH 7, precursor 1 mg/mL) turned out to be 98.0%; in series [1] (pH 8, precursor 1 mg/mL), 82.8%; in series [1] (pH 9, precursor 1 mg/mL) it was 77.4%; in series [4] (setting [5]) it was 106.8%; in series [4] (setting [6]) it was 94.7%; in series [4] (setting [7]), 84.7%. Moreover, the “Ti2p Signal Strength (%)” value in series [4] (setting [8]) came out at 94.8%; in series [4] (setting [9]) it was 91.9%; in series [4] (setting [10]) it was 81.7%; in series [4] (setting [11]) it was 94.4%; in series [4] (setting [12]), 51.6%; in series [4] (setting [13]), 88.6%. Besides, in series [4] (setting [14]), the “Ti2p Signal Strength (%)” value worked out at 111.9%. Besides, the “Si2p Signal Strength (%)” value in series [3] (setting [5]) worked out at 91.7%; in series [3] (setting [6]), 83.9%; in series [3] (setting [7]) it was 69.4%; in series [3] (setting [8]), 85.3%; in series [3] (setting [9]) it was 88.7%; in series [3] (setting [10]), 84.6%. Moreover, the “Si2p Signal Strength (%)” value in series [3] (setting [11]) came to 78.9%; in series [3] (setting [12]), 76.5%; in series [3] (setting [13]), 30.5%; in series [3] (setting [14]), 90.4%. The “able to coat both TiO2 and SiO2 with at least one of the experimental conditions” value (shortened to “able … of the experimental conditions”) in series [4] is “able to coat both TiO2 and SiO2”.
For `Oc1ccc(O)cc1` [Hydroquinone, hydroquinone], the “capable” value in series [1] is reported as “capable of forming coatings”. The “Ti2p Signal Strength (%)” value in series [1] (pH 7, precursor 1 mg/mL) is 89.3%; in series [1] (pH 8, precursor 1 mg/mL), 89.6%; in series [1] (pH 9, precursor 1 mg/mL), 70.6%; in series [4] (setting [10]) it was 0.0%; in series [4] (setting [11]) it was 93.5%; in series [4] (setting [12]), 62.5%. In addition, the “Ti2p Signal Strength (%)” value in series [4] (setting [13]) is on record as 80.8%; in series [4] (setting [14]) it was 108.7%. Further, the “Si2p Signal Strength (%)” value in series [3] (setting [10]) is on record as 86.5%; in series [3] (setting [11]) it was 68.2%; in series [3] (setting [12]), 77.1%; in series [3] (setting [13]), 85.9%; in series [3] (setting [14]), 89.0%. The “able … of the experimental conditions” value in series [4] was “able to coat both TiO2 and SiO2”.
Consider `O=c1c(O)c(-c2ccc(O)c(O)c2)oc2cc(O)cc(O)c12` [Quercetin, quercetin], for which, in series [1], the “capable” value was “capable of forming coatings”. The “Ti2p Signal Strength (%)” value in series [1] (pH 9, precursor 1 mg/mL) is listed as 73.3%; in series [4] (setting [10]), 0.0%; in series [4] (setting [11]), 94.4%; in series [4] (setting [12]) it was 54.6%; in series [4] (setting [13]), 83.9%; in series [4] (setting [14]), 77.6%. In addition, the “Si2p Signal Strength (%)” value came to 0.0% in series [3] (setting [10]); 88.5% in series [3] (setting [11]); 7.8% in series [3] (setting [12]); 90.2% in series [3] (setting [13]); 95.1% in series [3] (setting [14]). The “able … of the experimental conditions” value in series [4] was “able to coat both TiO2 and SiO2”.
On to `Oc1ccccc1` [Phenol, phenol], for which the “capable” value in series [1] was “capable of forming coatings”. The “Ti2p Signal Strength (%)” value in series [1] (pH 7, precursor 1 mg/mL) is given as 102.2%; in series [1] (pH 8, precursor 1 mg/mL), 68.5%; in series [1] (pH 9, precursor 1 mg/mL), 79.0%; in series [4] (setting [5]) it was 106.8%; in series [4] (setting [6]), 78.7%; in series [4] (setting [7]), 0.0%. Moreover, the “Ti2p Signal Strength (%)” value came to 78.5% in series [4] (setting [8]) and 86.4% in series [4] (setting [9]). In addition, the “Si2p Signal Strength (%)” value is listed as 70.8% in series [3] (setting [5]); 71.9% in series [3] (setting [6]); 0.0% in series [3] (setting [7]); 93.0% in series [3] (setting [8]); 85.6% in series [3] (setting [9]). Besides, the “able … of the experimental conditions” value in series [4] was “able to coat both TiO2 and SiO2”.
Take `O=C(O)c1cc(O)c(O)c(O)c1` [Gallic acid, gallic acid]: the “Ti2p Signal Strength (%)” value in series [1] (pH 7, precursor 1 mg/mL) came out at 94.0%; in series [1] (pH 8, precursor 1 mg/mL), 95.0%; in series [1] (pH 9, precursor 1 mg/mL), 88.3%; in series [4] (setting [15]) it was 0.0%; in series [4] (setting [16]) it was 106.3%; in series [4] (setting [17]), 0.0%. The figures for the “Ti2p Signal Strength (%)” value in series [4] (setting [18]) and in series [4] (setting [19]) were 107.6% and 80.7%, respectively. Besides, the “Si2p Signal Strength (%)” value was 7.7% in series [3] (setting [15]); 91.0% in series [3] (setting [16]); 0.0% in series [3] (setting [17]); 95.3% in series [3] (setting [18]); 107.5% in series [3] (setting [19]). For the same molecule, the “able … of the experimental conditions” value in series [4] is “able to coat both TiO2 and SiO2”.
As for `Oc1cccc(O)c1` [Resorcinol, resorcinol], in series [1], the “capable” value is given as “capable of forming coatings”. The “Ti2p Signal Strength (%)” value in series [1] (pH 7, precursor 1 mg/mL) is given as 94.7%; in series [1] (pH 8, precursor 1 mg/mL) it was 85.0%; in series [1] (pH 9, precursor 1 mg/mL), 90.9%; in series [4] (setting [5]), 111.6%; in series [4] (setting [6]), 84.1%; in series [4] (setting [7]), 0.0%. Besides, the “Ti2p Signal Strength (%)” value was found to be 97.3% in series [4] (setting [8]) and 104.7% in series [4] (setting [9]). Also, the “Si2p Signal Strength (%)” value in series [3] (setting [5]) worked out at 88.7%; in series [3] (setting [6]), 76.9%; in series [3] (setting [7]) it was 71.6%; in series [3] (setting [8]), 89.9%; in series [3] (setting [9]), 90.6%. In series [4], the “able … of the experimental conditions” value was “able to coat both TiO2 and SiO2”.

(Values after patent publication US10265275B2, “Phenolic coatings and methods of making and using same” (Northwestern University, priority 2013, dated 2019).)
